Experimental data: PubChem BioAssay AID686943 (Drosophila RNAi Screening Center, 2013)
Aim: 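Search across the genome for regulators of signalling from receptor tyrosine kinase to ERK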 (primary screen). Cell system: Drosophila S2R+ haemocyte-like cells expressing YFP-tagged ERK (Rolled). Reagents: long dsRNA against Drosophila genes. Treatment: insulin stimulation versus unstimulated cells; dose and duration not given. Measured: 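Antibody staining for doubly phosphorylated ERK divided by ERK-YFP signal, as plate z-scores, in insulin-treated and untreated cells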. Direction: replicate 1, z-score of dpERK with insulin and replicate 2, z-score of dpERK with insulin: higher = more active ERK per ERK-YFP after insulin; replicate 1, z-score of dpERK under basal conditions: higher = more basal active ERK per ERK-YFP; replicate 1, z-score of ERK-YFP with insulin: higher = more YFP-tagged ERK signal.
The deposit covers about 23,000 reagents; below is an unselected part of those with a known target gene and a result. 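Extra replicates exist only for a retested subset of genes; insulin dose and duration not given; both raised and lowered dpERK matter.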 Not given: the amount of reagent, the time to read-out.

| gene | DRSC id | replicate 1, z-score of dpERK with insulin | replicate 2, z-score of dpERK with insulin | replicate 1, z-score of dpERK under basal conditions | replicate 1, z-score of ERK-YFP with insulin |
| --- | --- | --- | --- | --- | --- |
| Fer2LCH (GeneID 44965) | DRSC16672 | -0.44 | -0.22 | 0.67 | 1.74 |
| eIF2beta (GeneID 39433) | DRSC11341 | 0.7 | 1.73 | -2.11 | -2.39 |
| CG10943 (GeneID 39462) | DRSC09805 | -0.19 | -0.55 | -0.11 | 0.47 |
| CG3527 (GeneID 31387) | DRSC18307 | -0.63 | -0.58 | -0.37 | -0.53 |
| Ccp84Ac (GeneID 40823) | DRSC12588 | 0.68 | -0.09 | 0.92 | 0.14 |
| CG31102 (GeneID 326118) | DRSC14260 | 12.9 | 1.46 | 1.23 | -1.06 |
| Xe7 (GeneID 40699) | DRSC12307 | -0.78 | -1.15 | -1.44 | 2.36 |
| CG9503 (GeneID 32424) | DRSC20186 | 0.8 | 0.45 | 0.26 | -0.41 |
| CG9503 (GeneID 32424) | DRSC21766 | 0.27 | -0.38 | 0.69 | -0.31 |
| RagA-B (GeneID 41071) | DRSC14450 | 1.54 | -0.52 | -0.22 | -1.01 |
| crim (GeneID 39321) | DRSC10573 | 0.77 | 2.19 | -0.08 | 0.29 |
| kappaTry (GeneID 36215) | DRSC06146 | 0.15 | 0.25 | -0.36 | 1.03 |
| CG42523 (GeneID 8674082) | DRSC00251 | -1.12 | 1.36 | -0.26 | 0.63 |
| whe (GeneID 33121) | DRSC20537 | 0.21 | 0.06 | 0.04 | 0.13 |
| AP-2mu (GeneID 42642) | DRSC14090 | 0.91 | 2.12 | -0.44 | 0.34 |
| CG14298 (GeneID 42259) | DRSC14777 | -0.77 | -0.79 | -1.12 | 0.66 |
| CG4270 (GeneID 33408) | DRSC00648 | -0.34 | -0.08 | -0.29 | 0.44 |
| Spf45 (GeneID 3355114) | DRSC03826 | 0.22 | 0.94 | 0.7 | -2.63 |
| alpha-Est3 (GeneID 40907) | DRSC12615 | -0.02 | 0.39 | 0.98 | 0.11 |
| CG33309 (GeneID 2768926) | DRSC01421 | -0.84 | -0.01 | -0.6 | 1.07 |
| CG11679 (GeneID 32515) | DRSC19415 | -0.49 | 0.07 | -0.32 | -0.52 |
| mgl (GeneID 8674055) | DRSC17800 | 1.58 | 0.28 | -0.11 | 0.14 |
| mgl (GeneID 8674055) | DRSC17823 | 0.21 | 0.33 | 0.19 | 0.58 |
| mgl (GeneID 8674055) | DRSC17859 | 0.35 | 0.67 | 0.31 | 0.64 |
| mgl (GeneID 8674055) | DRSC18004 | -1.01 | 0.51 | -0.41 | 0.57 |
| daed (GeneID 33398) | DRSC00299 | -0.49 | 0.05 | 0.25 | -0.3 |
| Ns2 (GeneID 36989) | DRSC06993 | 1.35 | 0.39 | -2.2 | -1.72 |
| ND2 (retired record) (GeneID 192474) | DRSC21274 | 0.6 | -0.02 | 0.3 | -0.32 |
| Adk1 (GeneID 41476) | DRSC15514 | -0.23 | 0.55 | 0.09 | 0.03 |
| CG9396 (GeneID 41156) | DRSC16487 | -0.2 | -0.78 | -0.87 | 0.01 |
| CG11634 (GeneID 35434) | DRSC03700 | 0.39 | 0.48 | 0.85 | 0.02 |
| drosha (GeneID 35747) | DRSC07607 | 0.84 | 0.55 | -0.72 | 0.39 |
| La (GeneID 35305) | DRSC03358 | 0.24 | 0.38 | -1.1 | 0.83 |
| CG44838 (GeneID 39099) | DRSC10330 | -2.76 | -4.71 | -1.57 | -3.39 |
| CG44838 (GeneID 39099) | DRSC10371 | 0.41 | 0 | 0.01 | -0.44 |
| Prx6a (GeneID 33493) | DRSC00565 | 0.34 | -0.08 | -0.25 | 0.3 |
| Csgalnact (GeneID 36079) | DRSC06228 | 0.49 | 0.29 | -0.18 | 0.17 |
| CG43123 (GeneID 12798080) | DRSC05049 | 0.06 | 0.15 | 1.1 | 0.79 |
| Cnb (GeneID 38258) | DRSC08569 | -0.92 | -0.96 | 0.03 | 0.24 |
